Experimental data published in publication PMC4937315.
No constants are given. Whether binding was seen depends on the method and setting. In cells and extracts the contact can be indirect. Some entries that bind do so weakly or less than the wild type. For some assays here: Tags and fused reporters may be left off the sequences shown. Values belong to the molecule of their own block, whether it stands above or below them.

Chains of the proteins cited; added tags and fusions are not shown.
UniProt G5EES3: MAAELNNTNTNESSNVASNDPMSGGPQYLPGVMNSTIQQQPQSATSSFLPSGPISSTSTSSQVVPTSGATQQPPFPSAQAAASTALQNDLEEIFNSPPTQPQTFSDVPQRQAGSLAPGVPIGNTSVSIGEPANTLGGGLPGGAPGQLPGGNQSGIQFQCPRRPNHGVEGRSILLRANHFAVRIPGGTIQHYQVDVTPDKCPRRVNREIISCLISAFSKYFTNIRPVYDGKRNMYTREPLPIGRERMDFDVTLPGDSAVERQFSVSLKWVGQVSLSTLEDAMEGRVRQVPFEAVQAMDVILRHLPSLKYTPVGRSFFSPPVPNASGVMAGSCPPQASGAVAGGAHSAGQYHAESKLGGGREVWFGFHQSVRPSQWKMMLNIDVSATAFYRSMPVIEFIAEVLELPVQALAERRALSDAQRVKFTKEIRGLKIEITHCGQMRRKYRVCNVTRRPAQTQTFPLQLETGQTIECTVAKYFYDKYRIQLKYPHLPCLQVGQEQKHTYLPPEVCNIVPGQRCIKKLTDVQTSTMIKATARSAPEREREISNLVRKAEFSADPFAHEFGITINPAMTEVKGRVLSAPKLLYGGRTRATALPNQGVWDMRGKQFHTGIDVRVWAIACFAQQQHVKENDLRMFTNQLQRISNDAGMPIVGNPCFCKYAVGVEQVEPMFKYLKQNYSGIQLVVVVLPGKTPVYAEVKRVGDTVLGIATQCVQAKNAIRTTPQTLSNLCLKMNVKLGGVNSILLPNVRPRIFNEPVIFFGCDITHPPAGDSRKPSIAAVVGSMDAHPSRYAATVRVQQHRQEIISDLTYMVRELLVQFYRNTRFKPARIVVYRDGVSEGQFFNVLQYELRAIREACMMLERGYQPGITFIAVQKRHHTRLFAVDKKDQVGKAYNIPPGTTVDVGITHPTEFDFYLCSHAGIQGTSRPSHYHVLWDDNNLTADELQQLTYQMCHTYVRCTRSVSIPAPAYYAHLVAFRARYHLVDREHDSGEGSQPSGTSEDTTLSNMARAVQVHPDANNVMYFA
UniProt O16720: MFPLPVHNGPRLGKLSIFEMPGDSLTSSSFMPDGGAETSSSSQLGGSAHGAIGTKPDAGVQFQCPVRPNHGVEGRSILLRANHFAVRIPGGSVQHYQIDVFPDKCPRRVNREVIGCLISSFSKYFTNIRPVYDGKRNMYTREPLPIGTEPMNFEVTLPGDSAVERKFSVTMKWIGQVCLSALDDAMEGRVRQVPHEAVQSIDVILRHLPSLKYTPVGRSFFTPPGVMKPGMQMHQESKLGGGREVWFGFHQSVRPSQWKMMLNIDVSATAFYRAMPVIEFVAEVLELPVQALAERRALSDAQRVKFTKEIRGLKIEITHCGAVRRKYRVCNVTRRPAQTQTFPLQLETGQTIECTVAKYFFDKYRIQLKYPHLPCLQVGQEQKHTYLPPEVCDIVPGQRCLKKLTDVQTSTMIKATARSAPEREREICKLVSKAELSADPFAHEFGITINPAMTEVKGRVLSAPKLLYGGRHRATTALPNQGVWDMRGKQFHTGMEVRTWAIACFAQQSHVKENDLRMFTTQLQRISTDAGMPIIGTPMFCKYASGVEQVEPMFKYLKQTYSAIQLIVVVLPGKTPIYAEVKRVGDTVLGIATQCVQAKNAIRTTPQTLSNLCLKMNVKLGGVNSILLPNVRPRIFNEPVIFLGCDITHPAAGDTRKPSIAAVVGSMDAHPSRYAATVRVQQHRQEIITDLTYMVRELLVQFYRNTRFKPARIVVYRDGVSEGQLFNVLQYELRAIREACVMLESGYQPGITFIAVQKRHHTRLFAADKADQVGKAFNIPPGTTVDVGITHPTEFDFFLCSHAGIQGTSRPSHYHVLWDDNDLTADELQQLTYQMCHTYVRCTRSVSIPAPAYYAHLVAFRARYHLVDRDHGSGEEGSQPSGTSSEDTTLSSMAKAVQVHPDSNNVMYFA

How the values were obtained:
[1] = biological target: T1, PAB-1 (C. elegans cytoplasmic poly(A)-binding protein 1) (C. elegans (endogenous in embryos)) (UniProt Q9U302); assay: pull-down; proteins of pab-2(ok1851) embryonic S10 lysate (no PAB-2) co-purified with PAB-1, which was pulled down through its ligand GST-PAIP2 on Glutathione-Sepharose beads; 0.1 ng/µl RNase A; western blot
T1 sequence: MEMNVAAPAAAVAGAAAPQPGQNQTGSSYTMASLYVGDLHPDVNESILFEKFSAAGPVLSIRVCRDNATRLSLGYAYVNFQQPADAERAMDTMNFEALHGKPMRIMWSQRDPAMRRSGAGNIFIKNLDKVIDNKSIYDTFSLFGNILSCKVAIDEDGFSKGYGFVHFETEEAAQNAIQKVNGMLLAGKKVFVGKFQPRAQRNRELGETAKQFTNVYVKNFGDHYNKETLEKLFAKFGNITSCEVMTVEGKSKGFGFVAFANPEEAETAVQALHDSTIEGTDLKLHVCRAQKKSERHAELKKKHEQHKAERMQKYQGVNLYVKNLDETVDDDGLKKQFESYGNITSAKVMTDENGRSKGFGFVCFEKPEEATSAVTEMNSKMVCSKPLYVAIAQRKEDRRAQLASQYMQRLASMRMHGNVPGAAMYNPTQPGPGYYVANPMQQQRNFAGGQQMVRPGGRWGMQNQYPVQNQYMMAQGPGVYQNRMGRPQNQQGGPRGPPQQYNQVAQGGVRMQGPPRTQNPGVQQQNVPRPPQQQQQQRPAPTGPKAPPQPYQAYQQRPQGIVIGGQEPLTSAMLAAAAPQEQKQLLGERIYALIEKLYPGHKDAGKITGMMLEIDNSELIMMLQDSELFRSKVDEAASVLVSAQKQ

[2] = biological target: T2, GST-PAIP2 (mammalian PABP interacting protein 2 fused to GST) (UniProt Q9BPZ3); assay: pull-down; depletion of the embryonic translation extract with matrix-bound GST-PAIP2 (as in ref. 24); what is left in the treated extract read by western blot; only the target purified
T2 sequence: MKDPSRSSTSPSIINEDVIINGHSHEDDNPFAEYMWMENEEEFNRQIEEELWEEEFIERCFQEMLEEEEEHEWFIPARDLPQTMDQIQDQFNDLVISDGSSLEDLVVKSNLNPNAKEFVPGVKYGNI

[3] = biological target: T2, GST-PAIP2 (mammalian PABP interacting protein 2 fused to GST); assay: pull-down; 100 µg GST-PAIP2 pre-coupled to Glutathione-Sepharose 4B beads; S10 lysate of pab-2(ok1851) embryos (no PAB-2); 1 h at 4°C; 0.1 ng/µl RNase A; western blot; only the target purified
[4] = biological target: T2, GST-PAIP2 (mammalian PABP interacting protein 2 fused to GST); assay: pull-down; 100 µg GST-PAIP2 pre-coupled to Glutathione-Sepharose 4B beads; 2 mg S10 lysate of WT (N2) embryos; 1 h at 4°C; 25 mM Tris-Cl pH 7.5, 100 mM KCl, 2.5 mM MgCl2, 0.1% Triton X-100, 10% glycerol, 0.1 ng/µl RNase A; western blot; RNase A or MNase treatment did not impinge on co-purification; only the target purified

binding [1]: binds
Molecule: ALG-1 (miRNA-dedicated Argonaute protein) (from UniProt G5EES3 1-1023)

binding [1]: binds
Molecule: ALG-2 (miRNA-dedicated Argonaute protein) (from UniProt O16720 1-910)

binding [2]: binds
binding [3]: binds
binding [4]: binds
B1: PAB-1 (C. elegans cytoplasmic poly(A)-binding protein 1) (protein, UniProt Q9U302 1-646)
chain: T1 sequence
